{
  "source": "PubChem BioAssay AID1347076",
  "about": "(National Center for Advancing Translational Sciences (NCATS), 2019)",
  "note": "“And” between values parts separate entries of the source, which are not always exact repeats. Equal entries are not always repeated. The campaign covered roughly 400,000 compounds. About 13,000 (3.2%) were called active. The inconclusive results got no clear call from the source; some entries with a clear call stand among them for comparison. Calls follow the shape of the dose curve; as a rule, active = well fitted cell-killing curve with a large enough effect; inconclusive = small, poorly fitted or top-dose-only effect, or effect the other way; inactive = flat fitted curve, though single readings scatter. A potency beside an inconclusive call is a rough fit, not a confirmed value. % is scaled to controls: 0 for no effect and ±100 for the full control effect; potency is read from the fitted curve at half-maximal effect.",
  "data": [
    {"assay": "qHTS assay for MDR1-selective chemotherapeutics: Primary screen using the drug-selected MDR subline cells KB-V1; also: nearly all actives have a fitted effect of over 60% in size", "conditions": "KB-V1 MDR cells viability, CellTiter-Glo, 72 h; activity change, negative = cytotoxicity: at 46.1 µM (top of the series)", "how_it_was_run": "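Readout: CellTiter-Glo luminescence, 10 min after addition. Cells: KB-V1 MDR subline, 72 h at 37 degrees C with compound. Analysis: corrected, normalized data fitted to concentration-effect curves.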", "values": [
      {"smiles": "Cc1ccc(Nc2nc3ccccc3[nH]2)nc1", "Potency": "inconclusive: 11.6 µM [cytotoxic, partial curve]"},
      {"smiles": "CCCCc1ccc(NS(=O)(=O)c2ccc(N3CCCCS3(=O)=O)cc2)cc1", "Potency": "inconclusive: 29.1 µM [cytotoxic, single point]"},
      {"smiles": "Cc1cccc(-n2nnc(C(=O)Nc3ccc(F)cc3)c2N)c1", "Potency": "inconclusive: 18.4 µM [cytotoxic, single point]"},
      {"smiles": "Cc1c(NC(=O)c2cc3c(s2)-c2ccccc2OC3)cccc1[N+](=O)[O-]", "Potency": "inconclusive: 29.1 µM [cytotoxic, single point]"},
      {"smiles": "CCOc1ccc(C(=O)c2cn(Cc3ccccc3)c3c(F)cc(F)cc3c2=O)cc1", "activity change, negative = cytotoxicity": "inactive: -5.58%"},
      {"smiles": "C=C(C)c1cccc(C(C)(C)NC(=O)Nc2ccc(OC)cc2)c1", "activity change, negative = cytotoxicity": "inactive: 9.66%"},
      {"smiles": "CC(C)CCNC(=O)COC(=O)/C=C/c1ccc2ccccc2n1", "activity change, negative = cytotoxicity": "inactive: 24.3%"},
      {"smiles": "C(=C\\c1nc(N2CCCC2)c2ccccc2n1)/c1ccccc1", "Potency": "inconclusive: 32.6 µM [cytotoxic, partial curve, poor fit]"},
      {"smiles": "CN(Cc1ccccc1)C(=O)CCC1CCN(S(C)(=O)=O)CC1", "Potency": "inconclusive: 16.4 µM [rising, single point]"},
      {"smiles": "Nc1nc(N)c2sc3nc4c(cc3c2n1)CCC4", "Potency": "active: 20.6 µM"},
      {"smiles": "OC[C@@H]1CN(Cc2ccc(Cl)cc2)C[C@H](n2cnc3c(N4CCN(c5ccccc5)CC4)ncnc32)O1", "Potency": "inconclusive: 29.1 µM [cytotoxic, partial curve, poor fit]"},
      {"smiles": "CCNC(=O)COC(=O)c1cc(=O)[nH]c2ccccc12", "activity change, negative = cytotoxicity": "inactive: 9.91%"},
      {"smiles": "c1nc(N2CCCC2)c2[nH]cnc2n1", "Potency": "inconclusive: 29.1 µM [cytotoxic, single point]"},
      {"smiles": "CCOC(=O)N1CCN(C(=O)CNC(=O)c2nn(-c3ccc(OC)c(Cl)c3)c(=O)c3ccccc23)CC1", "activity change, negative = cytotoxicity": "inactive: -14.8%"},
      {"smiles": "COC(=O)/C(C#N)=C1/SC=C(C)N1c1ccccc1", "Potency": "inconclusive: 16.4 µM [cytotoxic, single point]"},
      {"smiles": "CCOc1ccc(NC(=O)CNC(=O)c2cccs2)cc1", "Potency": "inconclusive: 20.6 µM [cytotoxic, partial curve, poor fit]"},
      {"smiles": "Nc1nc(N)c(N)c(=O)[nH]1", "activity change, negative = cytotoxicity": "inactive: 7.51%"},
      {"smiles": "CS(=O)(=O)N1CCC(C(=O)NCCN2CCN(Cc3ccccc3)CC2)CC1", "activity change, negative = cytotoxicity": "inactive: 4.18%"},
      {"smiles": "COc1ccc(N2Nc3n[nH]c(N)c3N2)cc1", "activity change, negative = cytotoxicity": "inactive: 0.232%"},
      {"smiles": "CC(C)C(=O)NC(=S)Nc1ccccc1N1CCN(C(=O)c2ccc(Cl)cc2)CC1", "Potency": "inconclusive: 36.6 µM [cytotoxic, single point]"},
      {"smiles": "CC(NC(=O)CCl)c1ccccc1Br", "note": "(stereo not drawn)", "Potency": "inconclusive: 25.9 µM [cytotoxic, partial curve, poor fit]"},
      {"smiles": "C=C(C)c1cccc(C(C)(C)NC(=O)N2CCN(c3ccc(OC)cc3)CC2)c1", "Potency": "inconclusive: 16.4 µM [cytotoxic, single point]"},
      {"smiles": "Cc1cc(C)cc(CC(=O)N2CCC2(C)C(=O)NS(=O)(=O)c2ccccc2Cl)c1", "note": "(stereo not drawn)", "activity change, negative = cytotoxicity": "inactive: 1.81%"},
      {"smiles": "CN(C)c1cccc(C(=O)N(C)C2CCCN(Cc3ccccc3F)C2)c1", "note": "(stereo not drawn)", "Potency": "inconclusive: 8.2 µM [cytotoxic, partial curve]"},
      {"smiles": "CC(=O)COc1ccccc1OC(=O)c1ccco1", "activity change, negative = cytotoxicity": "inconclusive: -47.1%"},
      {"smiles": "Cc1cc(C)n(-c2nc3c(c(=O)[nH]c(=O)n3C)n2CC(O)COc2ccc(Cl)cc2Cl)n1", "note": "(stereo not drawn)", "Potency": "inconclusive: 1.84 µM [cytotoxic, partial curve, poor fit]"},
      {"smiles": "CCc1ccccc1NC(=O)Cn1c(=O)n(-c2cccc(C)c2)c(=O)c2c1c1cc(OC)ccc1n2C", "Potency": "inconclusive: 29.1 µM [rising, single point]"},
      {"smiles": "CC(C)OCCCNC(=O)Cc1ccc(NC(=O)N2CCCCc3ccccc32)cc1", "activity change, negative = cytotoxicity": "inactive: 4.16%"},
      {"smiles": "O=C(NCC1CCCO1)C1CCCN(S(=O)(=O)c2cc(Cl)ccc2Cl)C1", "note": "(stereo not drawn)", "Potency": "inconclusive: 11.6 µM [cytotoxic, partial curve]"},
      {"smiles": "Clc1nc(CN2CCOCC2)nc2sc3c(c12)CCC3", "activity change, negative = cytotoxicity": "inactive: 0%"},
      {"smiles": "CN(Cc1cccs1)C(=O)c1cc(S(=O)(=O)N2CCOCC2)ccc1N1CCCC1", "Potency": "inconclusive: 16.4 µM [cytotoxic, single point]"},
      {"smiles": "CN(C)S(=O)(=O)c1ccc(NC(=O)N2CCN(c3cccc(C(F)(F)F)c3)CC2)cc1", "Potency": "inconclusive: 14.6 µM [cytotoxic, partial curve, poor fit]"},
      {"smiles": "COc1ccc(CN2CCC(n3nccc3NC(=O)C3CC3)CC2)c(Cl)c1OC", "activity change, negative = cytotoxicity": "inconclusive: -55.3%"},
      {"smiles": "COCCCn1[nH]c2c3c(ccc2c1=O)C(=O)c1ccccc1C3=O", "Potency": "active: 14.6 µM"},
      {"smiles": "O=C(CCCN1C(=O)/C(=C/c2ccccc2)SC1=S)Nc1ccccc1O", "Potency": "inconclusive: 29.1 µM [cytotoxic, single point]"},
      {"smiles": "CCc1ccc(CNC(=O)CC2C(=O)NCCN2Cc2ccccc2F)nc1", "note": "(stereo not drawn)", "activity change, negative = cytotoxicity": "inactive: 24.6%"},
      {"smiles": "CC1(C(=O)NC2CCN(Cc3ccccc3)CC2)CCN1Cc1cc2ccccc2o1", "note": "(stereo not drawn)", "activity change, negative = cytotoxicity": "inactive: -0.691%"},
      {"smiles": "CC1=NN(c2ccccc2)C(=O)/C1=C/c1c(O)n(-c2ccc(F)c(Cl)c2)[nH]c1=O", "Potency": "inconclusive: 29.1 µM [cytotoxic, partial curve, poor fit]"},
      {"smiles": "Cc1[nH]nc(N=CC2=C(O)CC(C)(C)CC2=O)c1-c1ccccc1", "Potency": "active: 23.1 µM and inconclusive: 18.4 µM [cytotoxic, single point]"},
      {"smiles": "CCn1c(SCC(=O)c2c[nH]c3ccccc23)nc2cc(S(=O)(=O)N3CCOCC3)ccc21", "activity change, negative = cytotoxicity": "inactive: 0%"},
      {"smiles": "O=C(Oc1c(CN2CCOCC2)cc(Cl)c2cccnc12)c1ccccc1Br", "Potency": "inconclusive: 16.4 µM [cytotoxic, single point]"},
      {"smiles": "Cc1cccc(-c2noc(CCC(=O)NCc3ccco3)n2)c1", "activity change, negative = cytotoxicity": "inactive: 0%"},
      {"smiles": "Cc1cc(NC(=O)NC(=O)c2ccccc2NC(=O)C(C)N)ccc1Oc1ncc(Br)cn1", "note": "(stereo not drawn)", "Potency": "active: 0.731 µM"},
      {"smiles": "O=[N+]([O-])c1cc(F)cc(F)c1Nc1cc(F)cc(F)c1", "Potency": "inconclusive: 29.1 µM [rising, single point]"},
      {"smiles": "CN1C[C@@H]2[C@@H]3C(=O)N(Cc4ccccc4)C(=O)[C@@H]3[C@](Cc3ccccc3)(C1=O)N2C(=O)c1ccc(C(C)(C)C)cc1", "Potency": "inconclusive: 18.4 µM [cytotoxic, single point]"},
      {"smiles": "CN(CCOc1ccccc1)C(=O)c1cc([N+](=O)[O-])cc([N+](=O)[O-])c1", "Potency": "inconclusive: 16.4 µM [cytotoxic, partial curve]"},
      {"smiles": "Cc1cc(C)cc(CSc2ccc(S(=O)(=O)N3CCCC3)cn2)c1", "Potency": "inconclusive: 29.1 µM [cytotoxic, single point]"},
      {"smiles": "COc1ccc(OCCOC(=O)c2ccc(F)c(S(=O)(=O)N3CCOCC3)c2)cc1", "Potency": "inconclusive: 29.1 µM [cytotoxic, single point]"},
      {"smiles": "COc1ccc(/C=N/NC(=O)c2ccccc2Cl)cc1CSc1nc2ccccc2s1", "Potency": "active: 7.31 µM"},
      {"smiles": "CCc1cccc(C)c1NC(=S)N(CCN(C)C)C(C)c1cccnc1", "note": "(stereo not drawn)", "activity change, negative = cytotoxicity": "inactive: -22%"},
      {"smiles": "NC(=O)c1ccc(Nc2nnc(-c3ccc(O)cc3)c3ccccc23)cc1", "Potency": "inconclusive: 29.1 µM [cytotoxic, single point]"},
      {"smiles": "O=C1c2cccc3c2C2(O)c4c1cccc4C(=O)c1cccc(c12)C3=O", "Potency": "inconclusive: 18.4 µM [cytotoxic, single point]"},
      {"smiles": "O=C(Cn1c(=O)n(-c2ccc(Cl)cc2)c(=O)c2c3c(sc21)CCCCC3)Nc1cccc(Cl)c1", "activity change, negative = cytotoxicity": "inactive: -13.7%"},
      {"smiles": "CC(C)Cc1ccc(-c2cc3nc(NCc4cccc(Cl)c4)ccn3n2)cc1", "Potency": "inconclusive: 29.1 µM [cytotoxic, single point]"},
      {"smiles": "COc1ccc(C)cc1NC(=O)C(=O)NCC(c1cccnc1)N1CCN(c2ccccc2F)CC1", "note": "(stereo not drawn)", "activity change, negative = cytotoxicity": "inactive: 7.03%"},
      {"smiles": "O=C(Cn1ccc2cc(S(=O)(=O)N3CCCC3)ccc21)NCc1ccccc1", "Potency": "inconclusive: 32.6 µM [cytotoxic, partial curve, poor fit]"},
      {"smiles": "CN1CCN(C2CN(Cc3cn(Cc4ccc(C(F)(F)F)cc4)nn3)S(=O)(=O)C2)CC1", "note": "(stereo not drawn)", "activity change, negative = cytotoxicity": "inactive: 0%"},
      {"smiles": "O=C(OCC#CCSc1nnc(-c2cccc3ccccc23)o1)c1ccc(F)cc1", "Potency": "inconclusive: 29.1 µM [rising, single point]"},
      {"smiles": "O=C(CNc1cccc(Br)c1)Nc1ccc(S(=O)(=O)N2CCCCC2)cc1", "activity change, negative = cytotoxicity": "inactive: -2.69%"},
      {"smiles": "Cc1ccc(C(=O)NNC(=O)c2cccnc2SCc2cccc([N+](=O)[O-])c2)cc1", "Potency": "inconclusive: 1.84 µM [cytotoxic, full curve, poor fit]"},
      {"smiles": "COc1ccc(CNC(=O)CCc2ccc(S(=O)(=O)N3CCCCCC3)cc2)cc1", "Potency": "inconclusive: 8.2 µM [cytotoxic, partial curve, poor fit]"},
      {"smiles": "COc1cc(/C=C/C(=O)OCC(=O)N2CCCc3ccccc32)ccc1OC(F)F", "Potency": "inconclusive: 29.1 µM [cytotoxic, partial curve, poor fit]"},
      {"smiles": "Cc1ccc(S(=O)(=O)N2CCN(S(=O)(=O)N3CCOCC3)CC2)c(C)c1", "Potency": "inconclusive: 29.1 µM [cytotoxic, single point]"},
      {"smiles": "CCN(CC(=O)Nc1ccc(NC(C)=O)cc1)C(=O)c1ccc(COc2ccc(C(C)(C)C)cc2)cc1", "activity change, negative = cytotoxicity": "inactive: -25.8%"},
      {"smiles": "CCc1cc(C(=O)OC)c(N2C(=O)C3C4C=CC(C4)C3C2=O)s1", "note": "(stereo not drawn)", "Potency": "inconclusive: 29.1 µM [cytotoxic, single point]"},
      {"smiles": "O=C(NCc1ccc(Cl)cc1)C1CC(O)CN1S(=O)(=O)c1ccc(Cl)cc1", "note": "(stereo not drawn)", "Potency": "inconclusive: 29.1 µM [rising, single point]"},
      {"smiles": "O=C(NC(=S)Nc1ccccn1)c1cc(-c2ccccc2)nc2ccccc12", "Potency": "active: 16.4 µM"},
      {"smiles": "Cc1ccc2c(c1)C(c1ccc([N+](=O)[O-])cc1)=NNC(c1ccc(Br)cc1)=N2", "Potency": "inconclusive: 0.0065 µM [cytotoxic, full curve, poor fit]"}
    ]}
  ]
}
